Data reported in the supplement of paper PMC10849652.
Some of the results follow.

Sequences of proteins named here, by UniProt entry; tags and fusion partners are left off. A change or cut given only in a name is not applied to a line headed by its entry.
UniProt Q99627: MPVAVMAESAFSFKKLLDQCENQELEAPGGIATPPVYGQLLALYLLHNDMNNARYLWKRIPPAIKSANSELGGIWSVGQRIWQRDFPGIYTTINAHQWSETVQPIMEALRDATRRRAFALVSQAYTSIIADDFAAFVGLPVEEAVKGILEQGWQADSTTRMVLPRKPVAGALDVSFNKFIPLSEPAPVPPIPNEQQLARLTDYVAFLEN
UniProt P48730: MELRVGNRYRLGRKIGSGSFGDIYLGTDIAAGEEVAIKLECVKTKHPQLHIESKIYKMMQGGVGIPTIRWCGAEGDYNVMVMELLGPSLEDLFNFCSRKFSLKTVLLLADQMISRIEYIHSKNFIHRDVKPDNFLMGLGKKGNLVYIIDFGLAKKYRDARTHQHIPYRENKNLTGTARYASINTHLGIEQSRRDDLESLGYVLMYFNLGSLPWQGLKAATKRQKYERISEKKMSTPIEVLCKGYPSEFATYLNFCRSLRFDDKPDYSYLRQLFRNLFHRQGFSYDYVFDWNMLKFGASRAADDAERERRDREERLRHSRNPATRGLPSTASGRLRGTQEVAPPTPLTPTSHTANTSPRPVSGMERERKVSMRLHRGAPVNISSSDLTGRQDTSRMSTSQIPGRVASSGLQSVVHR
UniProt Q92828: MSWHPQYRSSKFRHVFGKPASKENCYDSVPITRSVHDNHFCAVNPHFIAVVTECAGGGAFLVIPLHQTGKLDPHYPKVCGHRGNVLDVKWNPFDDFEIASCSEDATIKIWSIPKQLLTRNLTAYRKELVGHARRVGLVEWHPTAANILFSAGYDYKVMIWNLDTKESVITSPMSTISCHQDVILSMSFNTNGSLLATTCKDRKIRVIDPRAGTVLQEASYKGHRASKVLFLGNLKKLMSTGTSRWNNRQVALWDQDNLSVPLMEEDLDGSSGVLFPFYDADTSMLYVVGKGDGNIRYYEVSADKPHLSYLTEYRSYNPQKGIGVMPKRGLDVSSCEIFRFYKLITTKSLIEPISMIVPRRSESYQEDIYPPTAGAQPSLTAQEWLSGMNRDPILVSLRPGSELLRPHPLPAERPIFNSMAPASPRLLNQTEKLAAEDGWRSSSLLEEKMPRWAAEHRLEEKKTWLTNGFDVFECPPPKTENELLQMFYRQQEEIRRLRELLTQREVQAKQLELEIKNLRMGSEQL
UniProt P23786: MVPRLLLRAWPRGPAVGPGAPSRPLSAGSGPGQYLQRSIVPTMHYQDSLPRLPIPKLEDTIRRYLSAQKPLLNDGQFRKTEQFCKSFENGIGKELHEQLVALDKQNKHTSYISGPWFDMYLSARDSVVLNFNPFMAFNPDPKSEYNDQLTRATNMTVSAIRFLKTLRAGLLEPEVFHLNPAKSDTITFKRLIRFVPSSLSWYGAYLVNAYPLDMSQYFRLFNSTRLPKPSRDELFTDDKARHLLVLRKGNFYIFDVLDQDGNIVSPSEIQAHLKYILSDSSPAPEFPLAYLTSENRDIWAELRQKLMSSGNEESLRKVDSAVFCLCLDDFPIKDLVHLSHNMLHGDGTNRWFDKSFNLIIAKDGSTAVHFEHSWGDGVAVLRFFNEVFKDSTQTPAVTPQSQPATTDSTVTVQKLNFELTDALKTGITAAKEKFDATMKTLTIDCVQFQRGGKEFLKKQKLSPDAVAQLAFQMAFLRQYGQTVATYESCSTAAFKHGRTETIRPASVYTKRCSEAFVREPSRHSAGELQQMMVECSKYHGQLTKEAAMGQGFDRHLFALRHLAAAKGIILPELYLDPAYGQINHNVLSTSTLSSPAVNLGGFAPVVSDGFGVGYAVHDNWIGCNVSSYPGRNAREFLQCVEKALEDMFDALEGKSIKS
UniProt P21964: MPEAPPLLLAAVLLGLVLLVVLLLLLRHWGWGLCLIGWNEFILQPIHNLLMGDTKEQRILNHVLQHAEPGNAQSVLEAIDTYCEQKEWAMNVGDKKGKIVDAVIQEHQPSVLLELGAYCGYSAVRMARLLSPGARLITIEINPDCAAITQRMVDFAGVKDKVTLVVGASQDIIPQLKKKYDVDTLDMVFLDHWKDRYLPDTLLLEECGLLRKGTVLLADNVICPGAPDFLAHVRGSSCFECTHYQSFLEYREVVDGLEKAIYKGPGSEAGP
UniProt Q9UKF6: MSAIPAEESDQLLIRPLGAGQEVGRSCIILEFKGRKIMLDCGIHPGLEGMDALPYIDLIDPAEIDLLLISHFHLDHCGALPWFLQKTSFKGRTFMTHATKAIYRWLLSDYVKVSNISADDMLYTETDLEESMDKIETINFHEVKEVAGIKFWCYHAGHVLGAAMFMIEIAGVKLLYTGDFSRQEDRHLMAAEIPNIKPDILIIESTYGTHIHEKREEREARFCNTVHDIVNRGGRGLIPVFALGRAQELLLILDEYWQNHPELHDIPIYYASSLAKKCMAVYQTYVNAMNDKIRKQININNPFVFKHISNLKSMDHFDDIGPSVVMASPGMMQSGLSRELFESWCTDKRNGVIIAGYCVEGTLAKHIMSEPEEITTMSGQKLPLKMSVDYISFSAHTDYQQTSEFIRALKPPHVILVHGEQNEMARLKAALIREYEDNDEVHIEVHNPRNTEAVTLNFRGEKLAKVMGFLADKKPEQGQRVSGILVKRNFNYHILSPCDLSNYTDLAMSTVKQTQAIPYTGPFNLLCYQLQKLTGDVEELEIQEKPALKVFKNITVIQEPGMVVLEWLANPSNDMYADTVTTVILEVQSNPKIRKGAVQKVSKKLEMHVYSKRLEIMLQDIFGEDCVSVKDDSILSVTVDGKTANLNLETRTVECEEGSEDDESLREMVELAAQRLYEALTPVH
UniProt P02461, whole entry, looked up: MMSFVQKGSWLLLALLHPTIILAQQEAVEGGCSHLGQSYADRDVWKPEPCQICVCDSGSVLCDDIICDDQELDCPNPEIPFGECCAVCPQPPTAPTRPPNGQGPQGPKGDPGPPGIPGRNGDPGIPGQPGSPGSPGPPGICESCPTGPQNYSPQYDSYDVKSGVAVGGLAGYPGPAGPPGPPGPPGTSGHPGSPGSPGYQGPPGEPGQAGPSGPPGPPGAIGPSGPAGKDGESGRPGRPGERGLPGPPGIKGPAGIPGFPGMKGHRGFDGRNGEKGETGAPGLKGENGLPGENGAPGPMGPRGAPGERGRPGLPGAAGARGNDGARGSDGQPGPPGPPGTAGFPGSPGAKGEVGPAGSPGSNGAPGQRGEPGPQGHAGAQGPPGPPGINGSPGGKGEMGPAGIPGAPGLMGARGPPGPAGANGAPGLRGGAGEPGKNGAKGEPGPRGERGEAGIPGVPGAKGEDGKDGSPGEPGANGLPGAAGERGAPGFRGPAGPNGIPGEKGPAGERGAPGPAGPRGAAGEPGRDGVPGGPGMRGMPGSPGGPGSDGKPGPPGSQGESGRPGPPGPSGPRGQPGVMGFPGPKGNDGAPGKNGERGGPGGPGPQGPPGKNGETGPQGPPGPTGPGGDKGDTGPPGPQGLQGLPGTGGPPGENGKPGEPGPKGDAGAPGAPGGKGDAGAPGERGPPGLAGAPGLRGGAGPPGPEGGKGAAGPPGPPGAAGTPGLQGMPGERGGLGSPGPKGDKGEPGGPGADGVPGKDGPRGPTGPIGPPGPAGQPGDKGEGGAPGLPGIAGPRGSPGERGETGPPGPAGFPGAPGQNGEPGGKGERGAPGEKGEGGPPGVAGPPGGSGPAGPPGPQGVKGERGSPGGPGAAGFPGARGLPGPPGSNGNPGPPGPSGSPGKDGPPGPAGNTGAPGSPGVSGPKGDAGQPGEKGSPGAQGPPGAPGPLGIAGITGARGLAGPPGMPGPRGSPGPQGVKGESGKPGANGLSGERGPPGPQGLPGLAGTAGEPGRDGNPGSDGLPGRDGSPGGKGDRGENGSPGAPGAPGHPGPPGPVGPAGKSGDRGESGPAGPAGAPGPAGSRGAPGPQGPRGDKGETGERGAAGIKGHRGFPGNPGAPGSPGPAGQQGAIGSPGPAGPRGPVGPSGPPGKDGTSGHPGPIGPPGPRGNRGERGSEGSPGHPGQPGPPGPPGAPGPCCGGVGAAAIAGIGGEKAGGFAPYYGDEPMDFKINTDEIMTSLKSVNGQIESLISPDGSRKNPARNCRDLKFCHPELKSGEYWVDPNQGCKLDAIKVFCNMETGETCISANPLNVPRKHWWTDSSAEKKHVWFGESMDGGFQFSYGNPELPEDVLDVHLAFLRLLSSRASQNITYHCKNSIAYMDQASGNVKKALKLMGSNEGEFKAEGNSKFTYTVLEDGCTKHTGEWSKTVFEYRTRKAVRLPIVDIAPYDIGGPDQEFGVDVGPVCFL
UniProt Q5RI15: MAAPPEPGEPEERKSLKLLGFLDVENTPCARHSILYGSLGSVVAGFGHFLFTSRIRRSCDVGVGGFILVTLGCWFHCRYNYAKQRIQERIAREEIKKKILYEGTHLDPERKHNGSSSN
UniProt P15954, whole entry, looked up: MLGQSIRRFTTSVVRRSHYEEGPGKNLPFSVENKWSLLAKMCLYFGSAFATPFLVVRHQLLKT
UniProt Q9UNS2: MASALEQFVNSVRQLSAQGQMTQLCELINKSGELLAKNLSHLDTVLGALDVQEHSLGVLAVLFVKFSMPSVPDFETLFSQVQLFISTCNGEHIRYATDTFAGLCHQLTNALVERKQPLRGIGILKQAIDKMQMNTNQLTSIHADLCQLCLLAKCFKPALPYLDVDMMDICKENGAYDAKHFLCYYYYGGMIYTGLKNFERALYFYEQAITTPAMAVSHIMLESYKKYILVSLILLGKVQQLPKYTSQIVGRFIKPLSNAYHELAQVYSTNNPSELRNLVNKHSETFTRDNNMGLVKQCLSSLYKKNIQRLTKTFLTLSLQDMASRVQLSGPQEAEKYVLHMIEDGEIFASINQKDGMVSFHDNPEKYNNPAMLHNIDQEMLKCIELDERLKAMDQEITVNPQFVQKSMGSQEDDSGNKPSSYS
UniProt P41240: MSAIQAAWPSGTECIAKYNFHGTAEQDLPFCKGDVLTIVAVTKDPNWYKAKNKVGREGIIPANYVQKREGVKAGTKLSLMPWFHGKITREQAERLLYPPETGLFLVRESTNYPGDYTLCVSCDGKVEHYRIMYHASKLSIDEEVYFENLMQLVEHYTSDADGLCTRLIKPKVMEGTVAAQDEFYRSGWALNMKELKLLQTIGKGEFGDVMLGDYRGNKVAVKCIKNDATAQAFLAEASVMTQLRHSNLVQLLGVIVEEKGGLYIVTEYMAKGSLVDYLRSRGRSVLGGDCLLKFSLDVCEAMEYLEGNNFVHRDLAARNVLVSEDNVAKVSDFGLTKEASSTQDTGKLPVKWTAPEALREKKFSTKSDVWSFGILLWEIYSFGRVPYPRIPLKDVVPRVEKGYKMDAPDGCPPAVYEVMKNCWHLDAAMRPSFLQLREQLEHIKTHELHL
UniProt Q12887: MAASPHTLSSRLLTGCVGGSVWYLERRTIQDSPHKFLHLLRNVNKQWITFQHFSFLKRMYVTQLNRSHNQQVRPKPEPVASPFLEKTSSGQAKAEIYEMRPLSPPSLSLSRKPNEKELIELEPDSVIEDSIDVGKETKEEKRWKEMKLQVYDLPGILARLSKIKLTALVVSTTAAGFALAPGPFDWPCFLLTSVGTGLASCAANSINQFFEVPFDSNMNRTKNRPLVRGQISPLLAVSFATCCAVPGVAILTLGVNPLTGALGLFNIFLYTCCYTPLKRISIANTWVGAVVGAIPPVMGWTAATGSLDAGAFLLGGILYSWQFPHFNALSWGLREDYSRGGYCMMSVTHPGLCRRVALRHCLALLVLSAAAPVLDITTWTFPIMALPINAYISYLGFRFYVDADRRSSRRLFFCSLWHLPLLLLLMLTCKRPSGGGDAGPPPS
UniProt Q99807: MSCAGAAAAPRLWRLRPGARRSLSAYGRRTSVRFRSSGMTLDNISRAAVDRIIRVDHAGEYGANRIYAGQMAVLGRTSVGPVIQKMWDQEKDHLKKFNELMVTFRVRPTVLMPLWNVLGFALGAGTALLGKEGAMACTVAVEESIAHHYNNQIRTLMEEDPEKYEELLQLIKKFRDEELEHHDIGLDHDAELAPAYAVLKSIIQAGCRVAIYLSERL
UniProt Q8IUI8: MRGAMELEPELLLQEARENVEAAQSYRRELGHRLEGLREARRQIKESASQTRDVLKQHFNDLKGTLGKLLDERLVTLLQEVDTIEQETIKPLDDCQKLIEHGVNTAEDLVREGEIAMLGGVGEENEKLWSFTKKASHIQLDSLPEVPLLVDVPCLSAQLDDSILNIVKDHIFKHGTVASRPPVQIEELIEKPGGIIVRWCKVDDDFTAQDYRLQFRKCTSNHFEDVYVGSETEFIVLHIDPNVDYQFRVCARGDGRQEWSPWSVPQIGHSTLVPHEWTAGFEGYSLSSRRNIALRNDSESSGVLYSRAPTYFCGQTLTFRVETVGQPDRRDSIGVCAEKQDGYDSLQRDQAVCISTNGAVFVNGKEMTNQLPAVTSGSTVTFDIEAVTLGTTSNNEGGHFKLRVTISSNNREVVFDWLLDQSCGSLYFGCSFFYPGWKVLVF
UniProt P14854, whole entry, looked up: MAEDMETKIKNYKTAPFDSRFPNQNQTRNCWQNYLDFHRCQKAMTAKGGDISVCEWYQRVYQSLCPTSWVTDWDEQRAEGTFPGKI

Columns and labels:
Test in all cases: log2 fold change, soluble protein after heating vs DMSO (PISA); higher = thermal stabilisation; K562 cells, 10 uM, 30 min; active = over 0.2 and 3.5 SD of the protein, either way, in both replicates (recomputed)
saracatinib = compound: CN1CCN(CCOc2cc(OC3CCOCC3)c3c(Nc4c(Cl)ccc5c4OCO5)ncnc3c2)CC1 [saracatinib]
Outline: (§1)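 Soluble protein was quantified by TMTpro 16plex LC-MS/MS after channel sums were equalised. It was obtained as the supernatant after 21,000xg for 90 min from pooled aliquots of K562 cells (2×10^6 cells/mL, 10 μM compound, 30 min) heated for 3 min across 48°C-58°C and extracted in PBS with 0.5% NP-40 at 4°C. Thermal stability values are relative to control samples and come from duplicates. They are given as log2 fold changes.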

sotrastaurin = compound: CN1CCN(c2nc(C3=C(c4c[nH]c5ccccc45)C(=O)NC3=O)c3ccccc3n2)CC1 [sotrastaurin]
Outline: as §1

Tubastatin A = compound: CN1CCc2c(c3ccccc3n2Cc2ccc(C(=O)NO)cc2)C1 [Tubastatin A]
Outline: as §1

[1] = compound: CNC(=O)C1=CC=CC=C1NC2=NC(=NC=C2Cl)NC3=C(C=C(C=C3)N4CCOCC4)OC
Outline: as §1

defactinib = compound: CNC(=O)c1ccc(Nc2ncc(C(F)(F)F)c(NCc3nccnc3N(C)S(C)(=O)=O)n2)cc1 [defactinib]
Outline: as §1

rucaparib = compound: CNCc1ccc(-c2[nH]c3cc(F)cc4c3c2CCNC4=O)cc1 [rucaparib]
Outline: as §1

[2] = compound: CNc1nc(-c2ccc3c(N)n[nH]c3c2)cc(N2C[C@@H](C(=O)NC3CCCCC3)CC[C@H]2C)n1
Outline: as §1

encorafenib = compound: COC(=O)N[C@@H](C)CNc1nccc(-c2cn(C(C)C)nc2-c2cc(Cl)cc(NS(C)(=O)=O)c2F)n1 [encorafenib]
Outline: as §1

[3] = compound: COC(=O)[C@H](CCSC)NC(=O)C1=C(C=C(C=C1)NC[C@H](CS)N)C2=CC=CC=C2
Outline: as §1

[4] = compound: COC1=CC=C(C=C1)CN2C=CC3=C2C=C(C=C3)C(=O)NO
Outline: as §1

filanesib = compound: CON(C)C(=O)N1N=C(c2cc(F)ccc2F)S[C@@]1(CCCN)c1ccccc1 [filanesib]
Outline: as §1

zotarolimus = compound: CO[C@H]1C[C@@H]2CC[C@@H](C)[C@@](O)(O2)C(=O)C(=O)N2CCCC[C@H]2C(=O)O[C@H]([C@H](C)C[C@@H]2CC[C@H](n3cnnn3)[C@H](OC)C2)CC(=O)[C@H](C)/C=C(\C)[C@@H](O)[C@@H](OC)C(=O)[C@H](C)C[C@H](C)/C=C/C=C/C=C/1C [zotarolimus]
Outline: as §1

idasanutlin = compound: COc1cc(C(=O)O)ccc1NC(=O)[C@@H]1N[C@@H](CC(C)(C)C)[C@](C#N)(c2ccc(Cl)cc2F)[C@H]1c1cccc(Cl)c1F [idasanutlin]
Outline: as §1

alisertib = compound: COc1cc(Nc2ncc3c(n2)-c2ccc(Cl)cc2C(c2c(F)cccc2OC)=NC3)ccc1C(=O)O [alisertib]
Outline: as §1

[5] = compound: COc1cc2nc(-c3cc(F)ccc3O)nc(N[C@@H]3CNC[C@H]3C(C)(C)O)c2cc1OC
Outline: as §1

gefitinib = compound: COc1cc2ncnc(Nc3ccc(F)c(Cl)c3)c2cc1OCCCN1CCOCC1 [gefitinib]
Outline: as §1

[6] = compound: COc1cccc2cc(-c3nc([C@H]4CC[C@H](C(=O)O)CC4)n4ncnc(N)c34)[nH]c12
Outline: as §1

lapatinib = compound: CS(=O)(=O)CCNCc1ccc(-c2ccc3ncnc(Nc4ccc(OCc5cccc(F)c5)c(Cl)c4)c3c2)o1 [lapatinib]
Outline: as §1

pictilisib = compound: CS(=O)(=O)N1CCN(Cc2cc3nc(-c4cccc5[nH]ncc45)nc(N4CCOCC4)c3s2)CC1 [pictilisib]
Outline: as §1

alvocidib = compound: CN1CC[C@H](c2c(O)cc(O)c3c(=O)cc(-c4ccccc4Cl)oc23)[C@H](O)C1 [alvocidib]
Outline: as §1

Measured: log2 fold change

COPS8 (UniProt Q99627)
inactive: saracatinib -0.013 | sotrastaurin -0.052 | Tubastatin A -0.025 | [1] -0.039 | defactinib -0.03 | rucaparib -0.015 | [2] 0.018 | encorafenib 0.011 | [3] -0.021 | [4] 0.006 | filanesib 0.023 | zotarolimus 0.045 | idasanutlin -0.017 | alisertib 0.042 | [5] -0.078 | gefitinib -0.028 | [6] 0.117 | lapatinib -0.01 | pictilisib -0.014

CSNK1D (UniProt P48730)
inactive: saracatinib -0.047 | sotrastaurin -0.038 | Tubastatin A 0.039 | [1] 0.111 | defactinib 0.045 | rucaparib 0.032 | [2] -0.038 | encorafenib 0.06 | [3] -0.012 | [4] 0.045 | filanesib 0.153 | zotarolimus -0.019 | idasanutlin 0.027 | alisertib -0.016 | [5] -0.049 | gefitinib -0.006 | [6] -0.009 | lapatinib 0.041 | pictilisib -0.053

CORO2A (UniProt Q92828)
inactive: saracatinib 0.016 | sotrastaurin 0.015 | Tubastatin A -0.055 | [1] 0.053 | defactinib -0.015 | rucaparib -0.266 | [2] -0.097 | encorafenib 0.21 | [3] -0.028 | filanesib -0.035 | zotarolimus -0.049 | idasanutlin -0.071 | alisertib 0.035 | [5] -0.057 | gefitinib -0.097 | [6] -0.02 | lapatinib -0.011 | pictilisib -0.11

COQ9 (UniProt O75208)
inactive: saracatinib -0.009 | sotrastaurin -0.052 | Tubastatin A -0.045 | [1] -0.047 | defactinib -0.045 | rucaparib 0.001 | [2] 0.042 | encorafenib -0.013 | [3] -0.016 | [4] 0.02 | filanesib -0.113 | zotarolimus -0.017 | idasanutlin 0.166 | alisertib -0.038 | [5] -0.013 | gefitinib 0.025 | [6] 0.045 | lapatinib 0.043 | pictilisib -0.041

CPT2 (UniProt P23786)
active: zotarolimus 0.798 | idasanutlin 0.806
inactive: saracatinib -0.089 | sotrastaurin -0.136 | Tubastatin A 0.032 | [1] 0.147 | defactinib -0.164 | rucaparib -0.096 | [2] 0.363 | encorafenib -0.074 | [3] -0.057 | [4] 0.114 | filanesib -0.207 | alisertib -0.067 | [5] -0.199 | gefitinib 0.343 | [6] -0.005 | lapatinib 0.058 | pictilisib 0.57

COMT (UniProt P21964)
inactive: saracatinib -0.046 | sotrastaurin 0.109 | [1] 0.008 | defactinib -0.006 | rucaparib -0.018 | [2] 0.029 | encorafenib -0.039 | [3] -0.09 | [4] -0.097 | filanesib -0.054 | zotarolimus 0.034 | idasanutlin -0.093 | alisertib 0.009 | [5] 0.15 | gefitinib 0.043 | [6] 0.004 | lapatinib -0.042 | pictilisib 0.136
active: Tubastatin A 0.4

CPSF3 (UniProt Q9UKF6)
inactive: saracatinib 0.009 | sotrastaurin -0.086 | Tubastatin A 0.04 | [1] 0.07 | defactinib -0.098 | rucaparib -0.011 | [2] -0.049 | encorafenib 0.03 | [3] -0.009 | [4] -0.063 | filanesib 0.033 | zotarolimus 0.011 | idasanutlin -0.007 | alisertib -0.067 | [5] -0.021 | gefitinib 0 | [6] -0.012 | lapatinib 0.009 | pictilisib -0.025

COL3A1 (UniProt P02461)
inactive: saracatinib 0.129 | alvocidib -0.036 | Tubastatin A -0.144 | [1] 0.072 | defactinib 0.042 | [2] -0.065 | [3] 0.13 | [4] -0.072 | zotarolimus -0.083 | [5] -0.226 | lapatinib 0.109 | pictilisib 0.049

COX20 isoform 2 (UniProt Q5RI15)
inactive: saracatinib 0.005 | sotrastaurin 0.008 | Tubastatin A -0.062 | [1] -0.028 | defactinib -0.017 | rucaparib 0.044 | [2] -0.025 | encorafenib -0.108 | [3] 0.009 | [4] -0.029 | filanesib -0.011 | zotarolimus -0.029 | idasanutlin -0.039 | alisertib -0.025 | [5] 0.06 | gefitinib -0.01 | [6] 0.012 | lapatinib -0.014 | pictilisib -0.081

COX7C (UniProt P15954)
inactive: saracatinib 0.026 | sotrastaurin 0.028 | Tubastatin A 0.03 | [1] 0.007 | defactinib 0.031 | rucaparib 0.011 | [2] -0.054 | encorafenib -0.06 | [3] 0.047 | [4] 0.12 | filanesib 0.009 | idasanutlin 0.114 | alisertib -0.016 | [5] -0.069 | gefitinib 0.059 | [6] -0.053 | lapatinib 0.008 | pictilisib -0.288

COPS3 (UniProt Q9UNS2)
inactive: saracatinib -0.016 | sotrastaurin 0.02 | Tubastatin A -0.025 | [1] -0.021 | defactinib -0.023 | rucaparib -0.037 | [2] -0.013 | encorafenib -0.003 | [3] 0.033 | [4] 0.12 | filanesib -0.035 | zotarolimus -0.004 | idasanutlin -0.09 | alisertib -0.012 | [5] 0.008 | gefitinib -0.031 | [6] 0.052 | lapatinib -0.015 | pictilisib -0.063

CSK (UniProt P41240)
inactive: saracatinib -0.01 | sotrastaurin -0.069 | Tubastatin A 0.048 | [1] 0.097 | defactinib -0.105 | rucaparib -0.008 | [2] 0.007 | encorafenib 0.013 | [3] -0.048 | [4] 0.034 | filanesib -0.049 | zotarolimus 0.007 | idasanutlin -0.056 | alisertib -0.018 | [5] 0.024 | gefitinib 0.024 | [6] -0.049 | lapatinib 0.008 | pictilisib 0.02

COX10 (UniProt Q12887)
inactive: saracatinib 0.068 | alvocidib 0.049 | Tubastatin A 0.051 | [1] -0.163 | defactinib -0.013 | rucaparib 0.011 | [2] -0.054 | encorafenib 0.003 | [3] -0.023 | [4] -0.027 | zotarolimus -0.239 | idasanutlin -0.102 | alisertib -0.157 | [5] -0.074 | gefitinib -0.148 | [6] 0.175 | lapatinib -0.095 | pictilisib -0.205

COQ7 (UniProt Q99807)
inactive: saracatinib 0.024 | sotrastaurin 0.055 | Tubastatin A -0.009 | [1] 0.043 | defactinib 0.03 | rucaparib -0.062 | [2] -0.028 | encorafenib -0.058 | [3] 0.059 | [4] 0.001 | filanesib -0.098 | zotarolimus -0.081 | idasanutlin 0.026 | alisertib 0.115 | [5] 0.011 | gefitinib 0.055 | [6] 0.031 | lapatinib 0.042 | pictilisib 0.074

CSNK1A1 (UniProt P48729)
inactive: saracatinib -0.028 | sotrastaurin 0.011 | Tubastatin A 0.115 | defactinib 0.058 | rucaparib 0.128 | [2] 0.042 | encorafenib 0.037 | [3] -0.016 | [4] 0.147 | filanesib 0.08 | zotarolimus 0.024 | idasanutlin 0.094 | [5] -0.214 | gefitinib -0.106 | [6] -0.036 | lapatinib 0.019 | pictilisib 0.024

CRLF3 (UniProt Q8IUI8)
inactive: saracatinib -0.209 | sotrastaurin -0.124 | Tubastatin A 0.054 | [1] 0.051 | defactinib -0.076 | rucaparib 0.026 | [2] 0.036 | encorafenib 0.074 | [3] -0.013 | [4] -0.006 | filanesib -0.049 | zotarolimus 0.016 | idasanutlin 0.039 | alisertib 0.005 | [5] -0.05 | gefitinib 0.018 | [6] 0.014 | lapatinib 0.035 | pictilisib 0.051

COX6B1 (UniProt P14854)
inactive: saracatinib 0.024 | sotrastaurin -0.012 | Tubastatin A -0.069 | [1] 0.015 | defactinib -0.023 | rucaparib 0.022 | [2] -0.061 | encorafenib -0.043 | [3] 0.008 | [4] -0.08 | filanesib 0.003 | zotarolimus 0.012 | idasanutlin 0 | alisertib 0.007 | [5] 0.045 | gefitinib 0.036 | [6] 0.019 | lapatinib -0.026 | pictilisib 0.002
